The source of these data is patent USRE49280.

These are yes or no findings as the source states them, for the method shown. Binding can be weak; no strength is given.

In assay [1] the target is T1, TGF-β2 K25R I92V K94R (UniProt P61812).
T1 sequence (looked up): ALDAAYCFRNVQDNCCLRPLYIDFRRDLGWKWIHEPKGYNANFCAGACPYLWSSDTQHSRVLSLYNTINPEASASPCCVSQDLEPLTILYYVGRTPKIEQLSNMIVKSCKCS
In words: SPR, receptor injected over immobilised TGF-β2 K25R I92V K94R. On the technique in general: SPR reads the build-up and loss of mass on a sensor chip optically.

The target of assay [2] is T1, TGF-β2 K25R I92V K94R. In words: SPR, TβRII injected over immobilised TGF-β2 K25R I92V K94R with or without 800 nM TβRIIIE.

As to “TGF-β type III receptor endoglin-like domain”, the binding result with TGF-β2 K25R I92V K94R [1] and in the assay with TGF-β2 K25R I92V K94R [2] was “binds” each time.
